Measured values as given in US20090247624A1, “FORMULATIONS OF RADIOPROTECTIVE ALPHA BETA UNSATURATED ARYL SULFONES” (Onconova Therapeutics Inc., priority 2006, published 2009).
At least one compound was matched to its structure with a doubt left.

Assays:
HFL-1 cells = experiment: Radioprotective effects on cultured normal cells (colony count); assay type: cell-based, human
Procedure: HFL-1 cells, which are normal diploid lung fibroblasts, were plated into 24 well dishes at a cell density of 3000 cells per 10 mm^2 in DMEM completed with 10% fetal bovine serum and antibiotics. The test compounds listed in Table 11 were added to the cells 24 hours later in select concentrations from 2.5 to 20 micromolar, inclusive, using DMSO as a solvent. Control cells were treated with DMSO alone. The cells were exposed to the test compound or DMSO for 24 hrs. The cells were then irradiated with either 10 Gy (gray) or 15 Gy of ionizing radiation (IR) using a J. L. Shepherd Mark I, Model 30-1 Irradiator equipped with ^137cesium as a source.
After irradiation, the medium on the test and control cells was removed and replaced with fresh growth medium without the test compounds or DMSO. […] The number of colonies from each 100 mm^2 culture dish, which represents the number of surviving cells, was determined by staining the dishes as described below.
To visualize and count the colonies derived from the clonal outgrowth of individual radioprotected cells, the medium was removed and the plates were washed one time with room temperature phosphate buffered saline. […] The plates were air dried, the number of colonies from each plate were counted and the average from duplicate plates was determined. […]

[1] = Solid-state stability of ON.1210.Na at 75° C.; assay type: physicochemical
Procedure: A stability indicating HPLC assay is used during the preformulation studies. Preformulation studies include determination of microscopic and macroscopic properties, partition coefficient, pKa, pH-solubility, pH-stability, solid-state characterization and solid-state stability. XRD and thermal analyses re used to characterize the solid and solid-state stability. The solid-state stability as well as the pH stability of the drug is carried out at 75° C.
The stability of ON.1210.Na in the solid state is determined by exposing the drug at 75° C. over a prolonged time. The sample is crimped in a 10 mL injection vial and kept at the above temperature. The sample is collected after 15 days and one month and reconstituted with diluting solution and its concentration is determined by HPLC. Appearance of any additional peak in the chromatogram is also noted. A control sample is represented by ON.1210.Na not exposed to 75° C. and reconstituted to a known concentration with diluting solution.

[2] = Saturated solubility of ON.1210.Na in different solvent systems; assay type: physicochemical

O=S(=O)(/C=C/c1ccncc1)Cc1ccc(Cl)cc1 [Compound 9, (E)-4-Pyridylethenyl-4-chlorobenzylsulfone]
Activity (radioprotection, fold protection) (HFL-1 cells; 2.5 to 20 micromolar for 24 hrs before 10 Gy or 15 Gy, colonies on test plates / control plates): −

O=C([O-])c1ccc(/C=C/S(=O)(=O)Cc2ccc(Cl)cc2)cc1.[Na+] [ON.1210.Na, (E)-4-Carboxystyryl-4-chlorobenzylsulfone, Sodium Salt]
% change ([1]; sample not exposed to heating condition (control), day 15): −2.92%
Determined concentration ([1]; sample not exposed to heating condition (control), day 15, theoretical conc. 250 ug/mL): 242.7 µg/mL
% change ([1]; sample not exposed to heating condition (control), day 30): −7.1%
Determined concentration ([1]; sample not exposed to heating condition (control), day 30, theoretical conc. 250 ug/mL): 232.3 µg/mL
% change ([1]; sample not exposed to heating condition (control), day 45): −0.44%
Determined concentration ([1]; sample not exposed to heating condition (control), day 45, theoretical conc. 250 ug/mL): 249.8 µg/mL
% change ([1]; sample not exposed to heating condition (control), day 54): +1.75%
Determined concentration ([1]; sample not exposed to heating condition (control), day 54, theoretical conc. 200 ug/mL): 203.5 µg/mL
% change ([1]; solid exposed to 75° C., day 15): +6%
Determined conc. ([1]; solid exposed to 75° C., day 15, theoretical conc. 270 ug/mL): 286.2 µg/mL
% change ([1]; solid exposed to 75° C., day 30): +24%
Determined conc. ([1]; solid exposed to 75° C., day 30, theoretical conc. 270 ug/mL): 334.9 µg/mL
% change ([1]; solid exposed to 75° C., day 45): +11.8%
Determined conc. ([1]; solid exposed to 75° C., day 45, theoretical conc. 270 ug/mL): 302.0 µg/mL
% change ([1]; solid exposed to 75° C., day 54): +14.6%
Determined conc. ([1]; solid exposed to 75° C., day 54, theoretical conc. 200 ug/mL): 229.2 µg/mL
pH of solution ([2]; saturated solution in 0.25% Tween 80 in phosphate buffer): 8.45
pH of solution ([2]; saturated solution in 0.25% tween 80 in water): 8.87
pH of solution ([2]; saturated solution in 0.5% Tween 80 in phosphate buffer): 8.41
pH of solution ([2]; saturated solution in 0.5% tween 80 in water): 8.74
pH of solution ([2]; saturated solution in 1% (w/v) Povidone K 90 in water): 8.69
pH of solution ([2]; saturated solution in 1% PVP C 15): 8.86
pH of solution ([2]; saturated solution in 1% PVP C 30): 8.02
pH of solution ([2]; saturated solution in 1% Tween 80 in phosphate buffer): 8.45
pH of solution ([2]; saturated solution in 1% tween 80 in water): 8.82
pH of solution ([2]; saturated solution in 2% PVP C 15): 8.69
pH of solution ([2]; saturated solution in 2% Tween 80 in phosphate buffer): 8.39
pH of solution ([2]; saturated solution in 2% tween 80 in water): 8.78
pH of solution ([2]; saturated solution in 5% (w/v) Povidone K 90 in Water): 8.35
pH of solution ([2]; saturated solution in 5% cyclodextran, 24 hours of equilibration): 8.32
pH of solution ([2]; saturated solution in 5% cyclodextran, 48 hours of equilibration): 8.52
pH of solution ([2]; saturated solution in 10% PEG400:water): 8.24
pH of solution ([2]; saturated solution in 10% cyclodextran, 24 hours of equilibration): 8.14
pH of solution ([2]; saturated solution in 10% cyclodextran, 48 hours of equilibration): 8.41
pH of solution ([2]; saturated solution in 20% HPCD:20% PEG 400:60% water): 8.2
pH of solution ([2]; saturated solution in 20% cyclodextran, 24 hours of equilibration): 8.26
pH of solution ([2]; saturated solution in 20% cyclodextran, 48 hours of equilibration): 8.35
pH of solution ([2]; saturated solution in 25% PEG400:water): 8.01
pH of solution ([2]; saturated solution in 40% HPCD): 7.86
pH of solution ([2]; saturated solution in 50% PEG400:Buffer (0.01M)): 8.2
pH of solution ([2]; saturated solution in 50% PEG400:Buffer (0.07M)): 8.2
pH of solution ([2]; saturated solution in 50% PEG400:water): 7.53
pH of solution ([2]; saturated solution in 50:50 PEG400:ethanol): 8.46
pH of solution ([2]; saturated solution in 100% PEG 400 (12 g/kg)): 8.34
pH of solution ([2]; saturated solution in 100% ethanol): 7.94
pH of solution ([2]; saturated solution in DMA:WATER:Ethanol (1:1:1)): 8.11
pH of solution ([2]; saturated solution in NN-Dimethyl Acetamide:Water:PEG 400 (1:2:2)): 7.90
pH of solution ([2]; saturated solution in PEG300 (IP10 g/kg)): 8.21
pH of solution ([2]; saturated solution in PEG300:ETH (70:30)): 8.99
pH of solution ([2]; saturated solution in PEG 300:water (50:50)): 4.5
pH of solution ([2]; saturated solution in PEG400:Benzyl alcohol (50:50)): 8.19
pH of solution ([2]; saturated solution in PEG400:Ethanol 70:30): 8.03
pH of solution ([2]; saturated solution in Propylene Glycol): 7.27
pH of solution ([2]; saturated solution in Propylene glycol:water (50:50)): 8.53
pH of solution ([2]; saturated solution in Water): 8.40
radio-protection of normal human fibroblasts (HFL-1 cells; treatment prior to cytotoxic levels of ionizing radiation): dose-dependent radio-protection
